Results deposited as PubChem BioAssay AID1508597 (Cure First, 2020).

Purpose: 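Survival screen with siRNA in ovarian cancer cells derived from patients, with or without rucaparib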 (primary screen)
Cell system: human ovarian carcinoma lines grown from tumours: OCI-P5x (papillary serous) and OCI-C5x (clear cell)
Reagent: siRNA pool against human genes, 1.25 pmol siRNA per well
Timing: 72 h or 96 h, depending on the cell culture
Treatment: rucaparib 20 µM (about IC30) or vehicle, present until read-out
Rucaparib or vehicle: Rucaparib
Cell line: OCI-C5x (clear cell)
Measured: 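Luminescent ATP-based viability assay read 72 or 96 h after transfection, depending on culture, given as normalised percent viability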
Scale: viability, normalised: higher = more viable cells remaining
Hit rule: 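Active when normalised viability falls below 80 percent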
Calls: active = viability under 80%; inactive = viability 80% or more
This is an unselected part of the about 2,100 reagents, under one of the conditions tested. 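Calls flag viability under 80% in either arm, not effects specific to rucaparib; the reference for percent is not stated.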 Unmarked entries are inactive. A reagent listed more than once was tested more than once; the source does not tell the runs apart. Reagent sequences are not shown. The record does not give: the 100% reference.

gene	technical replicate	viability, normalised (%)
TREX2 (three prime repair exonuclease 2)	1	42.5 (active)
TREX2 (three prime repair exonuclease 2)	2	70.3 (active)
TREX2 (three prime repair exonuclease 2)	3	62.4 (active)
ERCC5 (ERCC excision repair 5, endonuclease)	1	44.1 (active)
ERCC5 (ERCC excision repair 5, endonuclease)	2	62.9 (active)
ERCC5 (ERCC excision repair 5, endonuclease)	3	58.6 (active)
CLDN10 (claudin 10)	1	37.9 (active)
CLDN10 (claudin 10)	2	51.2 (active)
CLDN10 (claudin 10)	3	51.6 (active)

2 neighbouring records already listed, for reference:
gene	technical replicate	viability, normalised (%)
TREX2 (three prime repair exonuclease 2)	1	42.5 (active)
TREX2 (three prime repair exonuclease 2)	2	70.3 (active)

Further records follow:
gene	technical replicate	viability, normalised (%)
RIOK1 (RIO kinase 1)	1	53.6 (active)
RIOK1 (RIO kinase 1)	2	50.5 (active)
RIOK1 (RIO kinase 1)	3	66 (active)
XRCC6 (X-ray repair cross complementing 6)	1	33.1 (active)
XRCC6 (X-ray repair cross complementing 6)	2	44.2 (active)
XRCC6 (X-ray repair cross complementing 6)	3	39.5 (active)
PRKCZ (protein kinase C zeta)	1	56.4 (active)
PRKCZ (protein kinase C zeta)	2	32.8 (active)
PRKCZ (protein kinase C zeta)	3	47.5 (active)
WRN (WRN RecQ like helicase)	1	84.1
WRN (WRN RecQ like helicase)	1	56.3 (active)
WRN (WRN RecQ like helicase)	2	67 (active)
WRN (WRN RecQ like helicase)	2	95.3
WRN (WRN RecQ like helicase)	3	72 (active)
WRN (WRN RecQ like helicase)	3	56.9 (active)
